According to paper doi:10.1101/2021.10.26.465916:
Results are given in words; binding and its absence hold for the method and conditions named. Binding seen in cells or lysates may run through a third protein. These calls come from enrichment with a bait or labelling near it, and not all partners need be listed. For some of these results: Where a sequence is shown, tags or fusion partners need not be part of it.

Key:
MLF2-APEX2-HA = target: T1, MLF2-APEX2-HA (UniProt Q15773); experiment: proximity labelling
T1 sequence: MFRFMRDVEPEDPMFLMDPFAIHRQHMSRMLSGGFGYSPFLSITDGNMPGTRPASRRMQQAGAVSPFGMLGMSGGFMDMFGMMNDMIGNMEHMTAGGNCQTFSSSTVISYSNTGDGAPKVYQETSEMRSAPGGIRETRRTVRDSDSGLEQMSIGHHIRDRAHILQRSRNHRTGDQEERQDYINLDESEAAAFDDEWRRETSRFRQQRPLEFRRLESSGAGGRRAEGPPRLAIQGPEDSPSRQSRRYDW

[1] = target: Δ133 ORF10-HA (Kaposi's sarcoma-associated herpesvirus (KSHV)); experiment: affinity purification with mass spectrometry

**Q.** With GP210 (from UniProt Q8TEM1 27-1887) as the molecule, how does the binding (MLF2-APEX2-HA) read?
**A.** binds

**Q.** Which binding (MLF2-APEX2-HA) does the source give for HSC70 (from UniProt P11142 1-646) here?
**A.** binds

**Q.** For HSPA1A (from UniProt P0DMV8 1-641), which binding (MLF2-APEX2-HA) is on record?
**A.** binds

**Q.** Which binding (MLF2-APEX2-HA) does the source give for Nup98 (from UniProt P52948 1-880) here?
**A.** binds

B1: Nup133 (protein, UniProt Q8WUM0 1-1156)
chain: MFPAAPSPRTPGTGSRRGPLAGLGPGSTPRTASRKGLPLGSAVSSPVLFSPVGRRSSLSSRGTPTRMFPHHSITESVNYDVKTFGSSLPVKVMEALTLAEVDDQLTINIDEGGWACLVCKEKLIIWKIALSPITKLSVCKELQLPPSDFHWSADLVALSYSSPSGEAHSTQAVAVMVATREGSIRYWPSLAGEDTYTEAFVDSGGDKTYSFLTAVQGGSFILSSSGSQLIRLIPESSGKIHQHILPQGQGMLSGIGRKVSSLFGILSPSSDLTLSSVLWDRERSSFYSLTSSNISKWELDDSSEKHAYSWDINRALKENITDAIWGSESNYEAIKEGVNIRYLDLKQNCDGLVILAAAWHSADNPCLIYYSLITIEDNGCQMSDAVTVEVTQYNPPFQSEDLILCQLTVPNFSNQTAYLYNESAVYVCSTGTGKFSLPQEKIVFNAQGDSVLGAGACGGVPIIFSRNSGLVSITSRENVSILAEDLEGSLASSVAGPNSESMIFETTTKNETIAQEDKIKLLKAAFLQYCRKDLGHAQMVVDELFSSHSDLDSDSELDRAVTQISVDLMDDYPASDPRWAESVPEEAPGFSNTSLIILHQLEDKMKAHSFLMDFIHQVGLFGRLGSFPVRGTPMATRLLLCEHAEKLSAAIVLKNHHSRLSDLVNTAILIALNKREYEIPSNLTPADVFFREVSQVDTICECLLEHEEQVLRDAPMDSIEWAEVVINVNNILKDMLQAASHYRQNRNSLYRREESLEKEPEYVPWTATSGPGGIRTVIIRQHEIVLKVAYPQADSNLRNIVTEQLVALIDCFLDGYVSQLKSVDKSSNRERYDNLEMEYLQKRSDLLSPLLSLGQYLWAASLAEKYCDFDILVQMCEQTDNQSRLQRYMTQFADQNFSDFLFRWYLEKGKRGKLLSQPISQHGQLANFLQAHEHLSWLHEINSQELEKAHATLLGLANMETRYFAKKKTLLGLSKLAALASDFSEDMLQEKIEEMAEQERFLLHQETLPEQLLAEKQLNLSAMPVLTAPQLIGLYICEENRRANEYDFKKALDLLEYIDEEEDININDLKLEILCKALQRDNWSSSDGKDDPIEVSKDSIFVKILQKLLKDGIQLSEYLPEVKDLLQADQLGSLKSNPYFEFVLKANYEYYVQGQI
**Q.** How did the binding (MLF2-APEX2-HA) turn out when B1 was run?
**A.** binds

B2: myeloid leukemia factor 2 (MLF2) (protein, UniProt Q15773 1-248)
chain: T1 sequence
**Q.** B2 was tested. Which binding [1] did it give?
**A.** binds

B3: Nup50 (protein, UniProt Q9UKX7 1-468)
chain: MAKRNAEKELTDRNWDQEDEAEEVGTFSMASEEVLKNRAIKKAKRRNVGFESDTGGAFKGFKGLVVPSGGGRFSGFGSGAGGKPLEGLSNGNNITSAPPFASAKAAADPKVAFGSLAANGPTTLVDKVSNPKTNGDSQQPSSSGLASSKACVGNAYHKQLAALNCSVRDWIVKHVNTNPLCDLTPIFKDYEKYLANIEQQHGNSGRNSESESNKVAAETQSPSLFGSTKLQQESTFLFHGNKTEDTPDKKMEVASEKKTDPSSLGATSASFNFGKKVDSSVLGSLSSVPLTGFSFSPGNSSLFGKDTTQSKPVSSPFPTKPLEGQAEGDSGECKGGDEEENDEPPKVVVTEVKEEDAFYSKKCKLFYKKDNEFKEKGIGTLHLKPTANQKTQLLVRADTNLGNILLNVLIPPNMPCTRTGKNNVLIVCVPNPPIDEKNATMPVTMLIRVKTSEDADELHKILLEKKDA
**Q.** With B3 as the molecule, how does the binding (MLF2-APEX2-HA) read?
**A.** binds
